Measured values reported in PubChem BioAssay (Tox21).
Values joined by “and” are separate entries in the source; they are usually repeats but may differ in a detail not shown here. Identical values can stand only once. This list was built around the results that the source calls inconclusive (neither active nor inactive); the mix of calls is not that of the screen. A potency beside an inconclusive call is a rough fit, not a confirmed value. Active and inactive are the calls of the source. The call rests on the fitted dose curve; in most records, active means well fitted inhibition curve with a large enough effect in the signal ratio in the repeat runs (not every such curve was filed as active); inconclusive means weak or mixed curves, or effect the other way; inactive means flat fitted curve, though single readings scatter; the % refers to the signal ratio.

Assay: cAMP Responsive Elements (CRE) small molecule antagonists, cell-based qHTS assay (AID 1963591)
Details: CRE-bla HEK293T, beta-lactamase FRET ratio; activity change, negative = inhibition: at 92.4 µM (top of the series) unless noted
Excerpt: U.S. Tox21 Program National Center for Advancing Translational Sciences [NCATS] Division of Preclinical Innovation [DPI] U.S. Environmental Protection Agency [EPA] National Institutes of Environmental Health Sciences [NIEHS] National Toxicology Program [NTP] U.S. Food and Drug Administration [FDA] Tox21 Assay Overview: CREB (cyclic-AMP Responsive Element Binding Protein) is a cellular transcription factor. It binds to certain DNA sequences called cAMP Responsive Elements (CRE) and regulates the transcription of the genes. […] This cell line can be used to find agonists/antagonists of the cyclic AMP signaling pathway. The activation of the report gene under culture conditions can be detected by fluorescence intensity. This cell line has been used to screen the Tox21 10K compound library to […].
Tox21 Assay Protocol Summary: CRE-bla Hek 293T cells were suspended in assay medium (DMEM containing 10% dialyzed FBS, 0.1 mM NEAA, 1 mM sodium pyruvate and 25 mM HEPES) and dispensed at 2,000 cells/4 uL /well into 1536-well black wall/clear bottom plates using a Multidrop Combi (ThermoFisher Scientific, Waltham, MA) dispenser. After the assay plates were incubated at 37 C/5% CO2 for 18 hrs, 23 nL of compounds dissolved in DMSO, positive controls or DMSO only was transferred to the assay plate by a pintool workstation (Kalypsys, San Diego, CA), followed by addition of 1 […] uL of 1.25uM NKH477 (0.25 uM as final concentration) in assay medium using a Flying Reagent Dispenser (Aurora Discovery, San Diego, CA). The plates were incubated at 37 C and 5% CO2 for 3 hrs. Then 1 uL of LiveBLAzer B/G FRET substrate (Invitrogen, Carlsbad, CA) was added to each well using Bioraptr Flying Reagent Dispenser (FRD, Aurora Discovery, San Diego, CA). The plates were incubated at room temperature for 2 h.
On the % scale 0 is the no-effect control and ±100 the full control effect; potency means the concentration at half of the fitted maximal effect.

SMILES	activity change, negative = inhibition	Potency
CCO[C@@H]1O[C@H](C(COCc2ccccc2)OCc2ccccc2)[C@H](OCc2ccccc2)[C@H]1O (stereo not given in full)	inactive: -0.657% [at 42.4 µM]	–
O=C(Cl)c1cc(Cl)cc(Cl)c1	–	inconclusive: 69.8 µM [activator, partial curve, poor fit]
COc1ccc(CCN(C)CCCN2CCc3cc(OC)c(OC)cc3CC2=O)cc1OC	inactive: 1.15% [at 42.4 µM]	–
O=C1NS(=O)(=O)c2ccccc21	inconclusive: -4.62%	–
CC(C)(O)c1ccc(CNC(=O)c2cccnc2Oc2ccc(F)cc2)cc1	–	inconclusive: 0.0137 µM [activator, full curve]
Cc1ncc(CO)c(CO)c1O	–	inconclusive: 0.0031 µM [falling, full curve, poor fit]
O=C1OC2(c3ccccc31)c1ccc(O)c(Br)c1Oc1c2ccc(O)c1Br	–	inconclusive: 21.7 µM [rising, partial curve]
CC(C)(C)OC(=O)c1ccc(O)cc1	inconclusive: -37.7%	–
CO[Si](C)(C)OC	inactive: -1.47%	–
C[C@]12C=CC(=O)C=C1CC[C@H]1[C@@H]3C[C@@H](O)[C@](O)(C(=O)CO)[C@@]3(C)C[C@H](O)[C@@]12F	–	inactive
O=C(O)c1cn(-c2ccc(F)cc2)c2cc(N3CCNCC3)c(F)cc2c1=O	inconclusive: 24.2% [at 42.4 µM]	inconclusive: 16.4 µM [activator]
CC(CCO)CCCC(C)(C)O (stereo not given)	inactive: 0.956%	–
CS(=O)(=O)Nc1ccc([N+](=O)[O-])cc1Oc1ccccc1	inconclusive: 17.5% [at 42.4 µM]	inconclusive: 68.6 µM [activator]
CC(C)COC(=O)c1ccc(O)cc1	–	inconclusive: 61.1 µM [inhibitor, partial curve, poor fit]
COCCC(=O)OC	inactive: -18.5%	–
COC(=O)c1cccc(C(=O)OC)c1	–	inactive
C#C[C@]1(O)CC[C@H]2[C@@H]3[C@H](C)CC4=C(CCC(=O)C4)[C@H]3CC[C@@]21C	inconclusive: -2.01% [at 42.4 µM]	–
CCn1cc(C(=O)O)c(=O)c2cc(F)c(N3CCNC(C)C3)c(F)c21 (stereo not given)	inactive: -0.249% [at 42.4 µM]	–

SMILES	activity change, negative = inhibition	Potency
CNC(=O)c1ccccc1	–	inconclusive: 0.0015 µM [rising, full curve, poor fit]
O=C(c1ccc(O)cc1)c1ccc(Cl)cc1	inconclusive: 7.95%	–
SC1CCCC1	inactive: 0.228%	–
OCc1ccccn1	inactive: -3.87% [at 42.4 µM]	–
CCCCCCCCS(=O)C(C)Cc1ccc2c(c1)OCO2 (stereo not given)	inconclusive: -32.3%	–
c1ccc2c(c1)Oc1ccccc1S2	inconclusive: -5.82%	–
OC1(c2ccccc2)CCNCC1	inconclusive: 2.09% [at 42.4 µM]	–
O=C1c2ccccc2C(=O)C1c1ccc(Br)cc1	inconclusive: 16.4% [at 42.4 µM]	–
COc1cccc2c1C(=O)c1c(O)c3c(c(O)c1C2=O)C[C@@](O)(C(=O)CO)C[C@@H]3O[C@H]1C[C@H](N)[C@H](O)[C@H](C)O1	–	inconclusive: 12.2 µM and active: 26.6 µM
CC(C)(C)NC(=O)[C@H]1CC[C@H]2[C@@H]3CC[C@H]4NC(=O)C=C[C@]4(C)[C@H]3CC[C@]12C	inconclusive: 18%	inconclusive: 53.9 µM [fluorescent] and inconclusive: 18.8 µM [activator, partial curve, poor fit]
CCCNC(C)C(=O)Nc1c(C)csc1C(=O)OC (stereo not given)	inactive: 0.861% [at 42.4 µM]	–
CN(C)CCN(C)CCN(C)C	inactive: 3.08%	–
Cc1c(Cl)cccc1Nc1ccccc1C(=O)O	inconclusive: 18.2% [at 42.4 µM]	–
CC(=O)c1ccc2c(c1)N(CCCN(C)C)c1ccccc1S2	inactive: -10.9% [at 42.4 µM]	–
O=C(O)c1cc(-c2ccccc2)nc2ccccc12	–	inconclusive: 16.2 µM [fluorescent]
CC1=C2[C@H](/C=C(\C)C(=O)O)CC[C@@H](C)[C@H]2CC1	inconclusive: 14.5%	–
O=C(O)CCC(=O)O	–	inactive

Same assay, conditions: CRE-bla HEK293T, beta-lactamase FRET ratio; at 42.4 µM (top of the series)

SMILES	activity change, negative = inhibition
CC(C)n1c(/C=C/[C@@H](O)C[C@@H](O)CC(=O)O)c(-c2ccc(F)cc2)c2ccccc21	inconclusive: 20.3%

Same assay, conditions: CRE-bla HEK293T, beta-lactamase FRET ratio; at 92.4 µM (top of the series)

SMILES	activity change, negative = inhibition
CC(C)n1c(/C=C/[C@@H](O)C[C@@H](O)CC(=O)O)c(-c2ccc(F)cc2)c2ccccc21	inconclusive: 2.18%
